From patent publication US6686462B2 (The Regents of the University of California, priority 1997, dated 2004)
Some results were stated once for a whole list of compounds, not compound by compound.

System: HT4-6C cells
Assay: Toxicity in HT4-6C cells by visual grading of cell morphology
Conditions: HT4-6C TC50 over HIV-1 EC50
Procedure: Selected compounds of the invention and PFA were tested for activity in HT4-6C cell by procedures disclosed in B. A. Larder et al., Science, 243:1731-1734 (1989). […] The TC50 values were determined using the following visual grading scale after 3 days to exposure to the tested drug compound: 4—normal appearance; 3—slight reduction of normal cells; 2-50% of cells appear normal; 1—sparse number of normal appearing cells; 0—no living cells. Values reported in the Table below are mean ±standard deviation.

**Q.** Which “selectivity index (SI), TC50(HIV-1)/EC50” value does the source give for `CCCCCCCCCCCCCCCCCCCCOC(=O)P(=O)(O)OC` [Example 9, Sodium Methyl 1-eicosanyloxycarbonylphosphonate] here?
**A.** Its value is less than 10.

**Q.** `CCCCCCCCCCCCCCCCCCOC(=O)P(=O)(O)OC` [Example 8, Sodium Methyl 1-octadecyloxycarbonylphosphonate] was tested. Which “selectivity index (SI), TC50(HIV-1)/EC50” value did it give?
**A.** Its value is less than 10.
